Screening data, single-dose tests

From ChEMBL document CHEMBL3988442, “University of Dundee, Small-Polar-MMV Screening Library” (2021).

Mtb cholesterol medium: 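Growth of Mycobacterium tuberculosis over 4 days (cholesterol / DPPC medium with tyloxapol); the read-out is not stated. Tested at 50 µM. Higher reads as more growth inhibition (inferred: compounds with an IC50 in retests scored well above the rest). About 69,000 compounds were tested under these conditions; 0.54% (about 370) showed 50% or more at least once.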
Mtb glucose medium: 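Whole-cell growth test on Mycobacterium tuberculosis, read after 3 days in glucose-containing 7H9 medium; the read-out is not stated. Compounds at 50 µM. Direction is inferred from retests: higher values go with more growth inhibition. Of about 69,000 compounds tested this way, about 760 (1.1%) reached 50% or more in at least one test.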

Values are the deposited “Percent Effect”, in %. How 0% and 100% were set is not recorded. Most values in the screen are low, and negative values occur. This is an unselected part of the compounds tested. Two or more numbers in one place are separate tests of the same structure; such repeats can differ widely.

Cc1ccc(-c2noc(C3CCN3C(=O)c3cc[nH]n3)n2)s1 (stereo not drawn) gave Mtb cholesterol medium: -6.378% & 5.368%; Mtb glucose medium: 8.24%.
Cn1cc(CN2CCC3(CC(=O)N(c4ccc5c(c4)OCO5)C3)C2)cn1.O=C(O)C(F)(F)F (stereo not drawn) gave Mtb cholesterol medium: -20.04%; Mtb glucose medium: -25.2%.
FC(F)(F)COCCN1CCCC(c2noc(C3CC3)n2)C1 (stereo not drawn) gave Mtb cholesterol medium: -16.75%; Mtb glucose medium: 2.449%.
CCN(CC(=O)N(C)C)C(=O)c1cc(-c2cccc(Cl)c2)no1 gave Mtb cholesterol medium: -17.06%; Mtb glucose medium: -3.115% & 17.1%.
c1ccc(CCCN2CCCC2Cn2cncn2)cc1 (stereo not drawn) gave Mtb cholesterol medium: -26.25%; Mtb glucose medium: -12.89%.
COc1ccc2nnc(CCCC(=O)NCc3ccccc3F)n2n1 gave Mtb cholesterol medium: -20.77%; Mtb glucose medium: -25.71%.
CSCC(C)(O)CNS(=O)(=O)c1ccc(F)cc1 (stereo not drawn) gave Mtb cholesterol medium: -1.618%; Mtb glucose medium: 10.69%.
COC1COC2(CCN(Cc3cccc(C#N)c3)CC2)C1.O=C(O)C(F)(F)F (stereo not drawn) gave Mtb cholesterol medium: -18.78%; Mtb glucose medium: -16.9%.
CC(C)NC(=O)N1CCC2(CCC(=O)N2CCN(C)C)CC1.O=C(O)C(F)(F)F gave Mtb cholesterol medium: -19.88%; Mtb glucose medium: -12.6%.
N[C@@H]1c2ccccc2C2(CCN(c3cc(C(F)(F)F)ccn3)CC2)[C@H]1O gave Mtb cholesterol medium: -7.251%; Mtb glucose medium: 22.11%.
O=C(O)C(F)(F)F.c1coc(COCc2ncn3c2CN(Cc2cccs2)CCC3)c1 gave Mtb cholesterol medium: -8.344%; Mtb glucose medium: 16.97%.
COc1cccc(CC2CN(C3CC(C)(C)NC(C)(C)C3)CCO2)c1 (stereo not drawn) gave Mtb cholesterol medium: -39.75%; Mtb glucose medium: -12.16%.
Cc1sc2nc(CCN)nc(N3CCS(=O)(=O)CC3)c2c1C gave Mtb cholesterol medium: -20.75%; Mtb glucose medium: 0.6793%.
[H][C@]12CN(Cc3cccnc3)C[C@@]1([H])S(=O)(=O)CC[C@@H]2C(=O)NCC(C)C gave Mtb cholesterol medium: -11.82%; Mtb glucose medium: -6.563%.
CCc1nc(CN2CCCC(N(C)Cc3cnn(C)c3)C2)no1 (stereo not drawn) gave Mtb cholesterol medium: 22.16%; Mtb glucose medium: -3.084% & 4.371%.
Cc1nn(CCO)c(C)c1CN1CCN(C2CCCCC2)C(=O)C1 gave Mtb cholesterol medium: -3.751%; Mtb glucose medium: -0.7979%.
[H][C@@]12CCN(C(=O)c3cccn3C)[C@@]1([H])CC(=O)N2CC1CCOCC1 gave Mtb cholesterol medium: 22.28%; Mtb glucose medium: -2.138% & 11.04%.
CC(C)N1CCCC(C(=O)N2CCN(c3cccc(C(=O)O)c3)CC2)C1 (stereo not drawn) gave Mtb cholesterol medium: -9.291%; Mtb glucose medium: -22.58% & -8.782%.
CS(=O)(=O)NCC1CCCN(C(=O)CCCc2ccccc2)C1 (stereo not drawn) gave Mtb cholesterol medium: 13.62%; Mtb glucose medium: 8.184%.
NC(=O)C1CCN(c2ncc(-c3cnccn3)c([C@H]3CCCO3)n2)CC1 gave Mtb cholesterol medium: -5.244%; Mtb glucose medium: 7.187%.
O=C(c1cscn1)N1CCC2(CCCN(CCOc3ccccc3)C2)C1 (stereo not drawn) gave Mtb cholesterol medium: 2.781% & -15.33%; Mtb glucose medium: 0.3228%.
CCN1CC(C(=O)NCCn2cccc2)CC1=O (stereo not drawn) gave Mtb cholesterol medium: 13.2%; Mtb glucose medium: -42.16%.
COC(=O)C1CCCCN1C(=O)c1ccccc1F (stereo not drawn) gave Mtb cholesterol medium: -7.044%; Mtb glucose medium: -18.2%.
O=C(CN1CCCC1c1noc(C2CC2)n1)N1CCc2ccccc21 (stereo not drawn) gave Mtb cholesterol medium: -0.1096%; Mtb glucose medium: -64.52% & 5.627%.
CCN(CC)c1ccc2ccc(C(=O)N(C)C)cn12 gave Mtb cholesterol medium: -1.59%; Mtb glucose medium: -24.2% & 0.1871%.
[H][C@@]12CCN(C(=O)C3CC3)C[C@]1([H])OCCN(c1ccsc1)C2=O gave Mtb cholesterol medium: -2.643%; Mtb glucose medium: -11.86% & 18.64%.
Cc1cc(Nc2cnccn2)nc(C2CCCN(CCO)C2)n1 (stereo not drawn) gave Mtb cholesterol medium: -2.08%; Mtb glucose medium: -4.065%.
O=C(NCc1nncn1C1CC1)c1ccc(F)c(COCC2CC2)c1 gave Mtb cholesterol medium: -14.86%; Mtb glucose medium: 4.079% & 15.21%.
CN(Cc1cncs1)C1CCN(C(=O)OC(C)(C)C)CC1 gave Mtb cholesterol medium: -4.082%; Mtb glucose medium: 7.087%.
Cc1ccc(NCc2ccc(C#N)cc2)c(CN(C)C)c1 gave Mtb cholesterol medium: 12.59%; Mtb glucose medium: -39.74%.
Cc1[nH]c(=O)[nH]c(=O)c1CN1CCCC(CCc2ccc(F)c(F)c2)C1 (stereo not drawn) gave Mtb cholesterol medium: 3.228%; Mtb glucose medium: 26.77% & 7.066%.
COCCCS(=O)(=O)N(Cc1cccc(C)c1)Cc1ccccn1 gave Mtb cholesterol medium: -12.57%; Mtb glucose medium: -1.468% & 12.53%.
CC(C)c1cc(C2CCN(C(=O)Cn3nc4ccccc4n3)CC2)[nH]n1 gave Mtb cholesterol medium: 7.952%; Mtb glucose medium: 22.21%.
COc1cc(C(=O)N(CCC#N)Cc2ccccn2)cc(OC)c1C gave Mtb cholesterol medium: -1.602%; Mtb glucose medium: 1.455%.
[H][C@@]12CCCO[C@]1([H])[C@H](NC(=O)c1cnccn1)CN2c1ncccn1 gave Mtb cholesterol medium: 21.12%; Mtb glucose medium: 3.478%.
NC(=O)C1CCN(c2nc3nccc(-c4cccnc4)c3c(=O)[nH]2)CC1 gave Mtb cholesterol medium: -6.48%; Mtb glucose medium: -14.55%.
Cc1cc(OCC(=O)N2CCCC(c3ccn[nH]3)C2)no1 (stereo not drawn) gave Mtb cholesterol medium: -4.09%; Mtb glucose medium: -11%.
c1ccc2oc(CCCN3CCCCC3Cn3cncn3)nc2c1 (stereo not drawn) gave Mtb cholesterol medium: 1.291%; Mtb glucose medium: 1.016% & 3.881%.
COC1CCN(C(=O)Cn2ccc3ccccc32)CC1 gave Mtb cholesterol medium: -19.81%; Mtb glucose medium: -18.84% & -6.288%.
CC(C)C(NC(=O)N1CCN(c2ccc(Cl)cc2)CC1)C(=O)NC1CC1 (stereo not drawn) gave Mtb cholesterol medium: -7.21%; Mtb glucose medium: -7.456%.
C[C@@H]1CN(Cc2cc(C3CCCCC3)no2)CC[C@]1(C)O gave Mtb cholesterol medium: -11.96% & 0.01579%; Mtb glucose medium: 16.7% & 5.363%.
Cn1cnnc1S(=O)(=O)C1CCN(C(=O)c2ccsc2)CC1 gave Mtb cholesterol medium: 15.8%; Mtb glucose medium: 27.2%.

3 of the entries, repeated:

CSCC(C)(O)CNS(=O)(=O)c1ccc(F)cc1 (stereo not drawn) read Mtb cholesterol medium: -1.618%; Mtb glucose medium: 10.69%.
CCN(CC(=O)N(C)C)C(=O)c1cc(-c2cccc(Cl)c2)no1 read Mtb cholesterol medium: -17.06%; Mtb glucose medium: -3.115% & 17.1%.
C[C@@H]1CN(Cc2cc(C3CCCCC3)no2)CC[C@]1(C)O read Mtb cholesterol medium: -11.96% & 0.01579%; Mtb glucose medium: 16.7% & 5.363%.